Among the data in paper PMC9191643, “Cryo-EM structure of DNA-bound Smc5/6 reveals DNA clamping enabled by multi-subunit conformational changes” are binding values, retold here.

No constants are given. Whether binding was seen depends on the method and setting. Some entries that bind do so weakly or less than the wild type.

What all share (assay): cryo-EM structure; purified hexameric Smc5/6-EQ complex (0.3 mg/mL) incubated with 1 mM ATP, 2 mM MgCl2 and 1.5 uM 72-bp dsDNA at 4 °C for 2 h; map at 3.8 Å; both purified
Test [1] concerns the target T1, Smc5 (E1015Q) (S. cerevisiae) (UniProt Q08204).
T1 sequence: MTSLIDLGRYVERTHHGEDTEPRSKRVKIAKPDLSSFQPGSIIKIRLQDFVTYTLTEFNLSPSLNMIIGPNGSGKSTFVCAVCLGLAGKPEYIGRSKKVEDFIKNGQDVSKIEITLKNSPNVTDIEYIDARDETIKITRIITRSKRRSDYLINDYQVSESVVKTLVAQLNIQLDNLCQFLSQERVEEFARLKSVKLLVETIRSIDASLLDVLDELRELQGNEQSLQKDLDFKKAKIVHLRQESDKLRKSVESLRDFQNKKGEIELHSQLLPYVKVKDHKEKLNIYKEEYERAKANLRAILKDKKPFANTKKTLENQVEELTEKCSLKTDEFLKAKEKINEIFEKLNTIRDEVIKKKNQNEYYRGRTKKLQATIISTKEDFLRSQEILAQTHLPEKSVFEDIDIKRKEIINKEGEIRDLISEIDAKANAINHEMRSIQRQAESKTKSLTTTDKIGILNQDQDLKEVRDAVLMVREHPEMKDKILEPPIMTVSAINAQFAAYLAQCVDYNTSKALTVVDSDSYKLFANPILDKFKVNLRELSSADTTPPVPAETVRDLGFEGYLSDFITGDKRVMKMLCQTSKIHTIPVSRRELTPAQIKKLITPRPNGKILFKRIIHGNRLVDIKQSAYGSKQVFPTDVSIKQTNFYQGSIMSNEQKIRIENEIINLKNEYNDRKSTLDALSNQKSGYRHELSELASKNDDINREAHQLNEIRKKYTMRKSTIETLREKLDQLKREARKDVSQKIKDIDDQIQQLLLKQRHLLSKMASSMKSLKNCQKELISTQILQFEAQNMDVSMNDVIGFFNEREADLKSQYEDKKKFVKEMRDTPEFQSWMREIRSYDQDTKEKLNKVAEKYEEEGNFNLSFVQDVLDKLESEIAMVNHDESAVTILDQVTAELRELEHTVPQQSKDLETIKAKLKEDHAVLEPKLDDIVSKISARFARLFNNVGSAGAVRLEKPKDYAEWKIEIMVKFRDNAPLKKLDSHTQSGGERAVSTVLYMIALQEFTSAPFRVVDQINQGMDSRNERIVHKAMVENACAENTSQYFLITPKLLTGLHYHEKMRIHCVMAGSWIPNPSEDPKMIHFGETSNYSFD

Test [2] concerns the target T2, Nse1 (S. cerevisiae) (UniProt Q07913).
T2 sequence: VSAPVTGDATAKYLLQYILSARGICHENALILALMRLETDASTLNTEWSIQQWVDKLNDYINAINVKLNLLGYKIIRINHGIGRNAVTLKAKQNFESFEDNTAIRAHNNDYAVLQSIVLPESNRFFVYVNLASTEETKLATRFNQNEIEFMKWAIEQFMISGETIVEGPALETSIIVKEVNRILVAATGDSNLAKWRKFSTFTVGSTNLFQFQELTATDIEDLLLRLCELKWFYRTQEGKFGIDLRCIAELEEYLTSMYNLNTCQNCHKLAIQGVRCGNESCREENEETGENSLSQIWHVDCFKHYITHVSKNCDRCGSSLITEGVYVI

Test [3] addresses T3, Nse3 (S. cerevisiae) (UniProt Q05541).
T3 sequence: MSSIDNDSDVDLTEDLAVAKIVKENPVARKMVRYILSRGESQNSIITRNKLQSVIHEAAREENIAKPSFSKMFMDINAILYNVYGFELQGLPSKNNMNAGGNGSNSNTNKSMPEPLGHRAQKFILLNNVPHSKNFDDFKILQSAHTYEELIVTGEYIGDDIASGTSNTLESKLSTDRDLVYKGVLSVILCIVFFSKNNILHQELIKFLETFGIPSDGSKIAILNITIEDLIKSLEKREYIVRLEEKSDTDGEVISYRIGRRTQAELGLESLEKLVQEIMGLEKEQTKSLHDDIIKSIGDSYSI

In test [4] the target is T4, Smc6 (E1048Q) (S. cerevisiae) (UniProt Q12749).
T4 sequence: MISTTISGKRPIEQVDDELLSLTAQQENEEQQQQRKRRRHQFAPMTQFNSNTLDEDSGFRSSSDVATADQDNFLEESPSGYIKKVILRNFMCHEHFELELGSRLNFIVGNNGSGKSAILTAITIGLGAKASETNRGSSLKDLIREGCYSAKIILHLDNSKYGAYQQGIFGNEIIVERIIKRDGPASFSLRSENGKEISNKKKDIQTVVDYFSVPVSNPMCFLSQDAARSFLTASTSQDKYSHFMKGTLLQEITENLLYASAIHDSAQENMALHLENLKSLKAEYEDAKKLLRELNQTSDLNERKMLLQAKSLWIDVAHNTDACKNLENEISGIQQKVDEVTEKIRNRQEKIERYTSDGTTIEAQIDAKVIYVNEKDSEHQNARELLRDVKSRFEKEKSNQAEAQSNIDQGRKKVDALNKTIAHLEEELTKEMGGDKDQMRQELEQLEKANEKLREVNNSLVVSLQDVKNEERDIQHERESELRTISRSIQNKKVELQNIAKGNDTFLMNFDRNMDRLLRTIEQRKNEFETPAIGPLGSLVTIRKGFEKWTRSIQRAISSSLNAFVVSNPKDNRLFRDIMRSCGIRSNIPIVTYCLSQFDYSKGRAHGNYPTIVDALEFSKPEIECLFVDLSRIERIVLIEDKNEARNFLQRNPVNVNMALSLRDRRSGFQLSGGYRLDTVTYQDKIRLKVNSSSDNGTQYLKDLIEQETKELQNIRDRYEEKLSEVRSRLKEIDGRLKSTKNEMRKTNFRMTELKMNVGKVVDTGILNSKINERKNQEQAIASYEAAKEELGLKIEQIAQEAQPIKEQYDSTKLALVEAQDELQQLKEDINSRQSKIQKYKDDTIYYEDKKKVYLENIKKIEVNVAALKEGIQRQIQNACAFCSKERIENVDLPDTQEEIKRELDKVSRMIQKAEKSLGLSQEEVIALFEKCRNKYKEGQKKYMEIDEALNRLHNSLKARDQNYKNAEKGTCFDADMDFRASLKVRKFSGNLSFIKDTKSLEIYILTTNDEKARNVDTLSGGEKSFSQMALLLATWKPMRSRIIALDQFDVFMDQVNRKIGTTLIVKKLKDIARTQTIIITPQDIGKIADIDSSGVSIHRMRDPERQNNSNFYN

B1: Nse4 (protein, UniProt P43124 1-402)
chain: MSSTVISRKRRNSTVTEPDSSGETRKQKKSRSDEKSSSSKDGDPQLEFKVLQGYRDLESEMHKGRAQVTRTGDIGVAMDNLNAVDSLFNKVIGIKNNGLFAHDARAMVSISELAQISVRNLKFDDSRSMVNLENIVNSLKRYMLKEHFKLNNIAENRNDLTLAADEQSAADQQEESDGDIDRTPDDNHTDKATSSFKATSMRHSYLQQFSHYNEFSQFNWFRIGALYNTISKNAPITDHLMGPLSIEKKPRVLTQRRRNNDQVGEKITAEKITQHSLNSTQQETTPEQVKKCFKKLSKKLGPEGSINLFKFIIDPNSFSRSIENLFYTSFLIKEGKLLMEHDEEGLPTIKIKQSISHTDSRSKEIERQRRRAAHQNHIIFQMDMPTWRKLIKKYNITSPFLD
Consider B1, for which the binding result in test [1], in test [2], in test [3] and in test [4] was “binds” throughout.

B2: Nse1 (protein, UniProt Q07913 8-336)
chain: T2 sequence
In the case of B2, the binding entry in test [3] is “binds”.

B3: Smc5 (E1015Q) (protein, UniProt Q08204 1-1093)
chain: T1 sequence
B3: the binding result in test [4] is listed as “binds”.
